Test results from patent US20130144064A1 (priority 2009, published 2013).
Read-outs that look alike come from different tables or passages of the source. Some results were stated once for a whole list of compounds, not compound by compound.

Key:
Assay type in all cases: in vivo
Plasmopara viticola [1] = test: Plasmopara viticola/Grape/Preventative (Grape Downy Mildew); details: 200 ppm; grape seedlings cv. Gutedel, inoculated one day after application, assessed 6-8 days after application
Phytophthora infestans [2] = details: 200 ppm; potato plants cv. Bintje, inoculated one day before application, assessed 3-4 days after application
Phytophthora infestans [3] = details: 200 ppm; tomato leaf disks, inoculated 1 day after application, assessed 5-7 days after application
Plasmopara viticola [4] = test: Plasmopara viticola/Grape/Leaf Disc Preventative (Grape Downy Mildew); details: 200 ppm; grape vine leaf disks, inoculated 1 day after application, assessed 6-8 days after application
Phytophthora infestans [5] = details: 200 ppm; potato plants cv. Bintje, inoculated 2 days after application, assessed 5-7 days after application
Plasmopara viticola [6] = test: Plasmopara viticola/Grape/Long Lasting (Grape Downy Mildew); details: 200 ppm; grape seedlings cv. Gutedel, inoculated 6 days after application, assessed 11-13 days after application
Plasmopara viticola [7] = test: Plasmopara viticola/Grape/Curative (Grape Downy Mildew); details: 200 ppm; grape seedlings cv. Gutedel, inoculated one day before application, assessed 4-6 days after application
Phytophthora infestans [8] = details: 200 ppm; potato plants cv. Bintje, inoculated 6 days after application, assessed 9-11 days after application

Measured: disease control

Cc1cc(C)n(CC(=O)N2CCN(c3cccc(C(=O)NC4CCCc5ccccc54)c3)CC2)n1 (stereo not shown) [I.z.005, 3-{4-[2-(3,5-Dimethyl-pyrazol-1-yl)-acetyl]piperazin-1-yl}-N-(1,2,3,4-tetrahydro-naphthalen-1-yl)-benzamide]
not listed: Plasmopara viticola [7] | Phytophthora infestans [8]
at least 80%: all other assays above

Cc1cc(C)n(CC(=O)N2CCN(c3cccc(C(=O)N[C@@H]4CCCc5ccccc54)c3)CC2)n1 [I.z.001, 3-{4-[2-(3,5-Dimethyl-pyrazol-1-yl)-acetyl]piperazin-1-yl}-N—(R)-(1,2,3,4-tetrahydro-naphthalen-1-yl)-benzamide]
at least 80%: all assays above

Cc1ccc(C)c(CC(=O)N2CCC(c3cccc(C(=O)N[C@@H]4CCCc5ccccc54)c3)CC2)c1 [I.n.049, 3-{1-[2-(2,5-Dimethyl-phenyl)-acetyl]-piperidin-4-yl}-N—(R)-(1,2,3,4-tetrahydro-naphthalen-1-yl)-benzamide]
at least 80%: Phytophthora infestans [3] | Plasmopara viticola [7] | Plasmopara viticola [4] | Phytophthora infestans [5]

Cc1cc(C(F)(F)F)nn1CC(=O)N1CCC(c2ccnc(C(=O)N[C@@H]3CCCc4ccccc43)c2)CC1 [I.v.001, 1′-[2-(5-methyl-3-trifluoromethyl-pyrazol-1-yl)-acetyl]-1′,2′,3′,4′,5′,6′-hexahydro-[4,4]bipyridinyl-2-carboxylic acid-(R)-(1,2,3,4-tetrahydro-naphthalen-1-yl)-amide]
at least 80%: all assays above

Cc1cc(C(F)(F)F)nn1CC(=O)N1CCC(c2cccc(C(=O)N[C@@H]3CCCc4ccccc43)c2)CC1 [I.n.001, 3-{1-[2-(5-methyl-3-trifluoromethyl-pyrazol-1-yl)-acetyl]-piperidin-4-yl}-N—(R)-1,2,3,4-tetrahydro-naphthalen-1-yl-benzamide]
at least 80%: all assays above

Cc1cc(C(F)(F)F)nn1CC(=O)N1CCC(c2cncc(C(=O)N[C@@H]3CCCc4ccccc43)c2)CC1 [I.t.001, 1′-[2-(5-methyl-3-trifluoromethyl-pyrazol-1-yl)-acetyl]-1′,2′,3′,4′,5′,6′-hexahydro-[3,4′]bipyridinyl-5-carboxylic acid-(R)-(1,2,3,4-tetrahydro-naphthalen-1-yl)amide]
at least 80%: Phytophthora infestans [3] | Phytophthora infestans [8] | Plasmopara viticola [4] | Plasmopara viticola [6]

Cc1cc(C(F)(F)F)nn1CC(=O)N1CCC(c2cccc(C(=O)Nc3ccccc3)c2)CC1 [I.n.011, 3-{1-[2-(5-methyl-3-trifluoromethyl-pyrazol-1-yl)-acetyl]-piperidin-4-yl}-N-phenyl-benzamide]
at least 80%: Plasmopara viticola [1] | Phytophthora infestans [3] | Plasmopara viticola [4]

Cc1cc(C(F)(F)F)nn1CC(=O)N1CCC(c2cccc(C(=O)NCc3ccccc3)c2)CC1 [I.n.009, N-benzyl-3-{1-[2-(5-methyl-3-trifluoromethyl-pyrazol-1-yl)-acetyl]-piperidin-4-yl}-N-benzamide]
not listed: Phytophthora infestans [8]
at least 80%: all other assays above

Cc1cc(C(F)(F)F)nn1CC(=O)N1CCC(c2cccc(C(=O)NC3CCCc4ccccc43)c2)CC1 (stereo not shown) [I.n.005, 3-{1-[2-(5-methyl-3-trifluoromethyl-pyrazol-1-yl)-acetyl]-piperidin-4-yl}-N-(1,2,3,4-tetrahydro-naphthalene-1-yl)-benzamide]
at least 80%: all assays above

Cc1cc(C(F)(F)F)nn1CC(=O)N1CCC(c2cccc(C(=O)N[C@H](C)c3ccccc3)c2)CC1 [I.n.003, 3-{1-[2-(5-methyl-3-trifluoromethyl-pyrazol-1-yl)-acetyl]-piperidin-4-yl}-N—((R)-1-phenyl-ethyl)-benzamide]
at least 80%: all assays above

Cc1cc(C)n(CC(=O)N2CCC(c3cccc(C(=O)NC4CCCc5ccccc54)c3)CC2)n1 (stereo not shown) [I.n.097, 3-{1-[2-(3,5-Dimethyl-pyrazol-1-yl)-acetyl]-piperidin-4-yl}-N-(1,2,3,4-tetrahydro-naphthalen-1-yl)-benzamide]
at least 80%: Phytophthora infestans [3] | Phytophthora infestans [8] | Plasmopara viticola [4]
